Measured values from the supplement of paper PMC6411743.
± gives the standard deviation of the averaged measurements. Some of the results follow.

Protein sequences, listed by entry. Tags and fused reporters are not part of them. Lines headed by an entry give the natural chain unless they say otherwise; changes in a name come on top.
UniProt Q10469: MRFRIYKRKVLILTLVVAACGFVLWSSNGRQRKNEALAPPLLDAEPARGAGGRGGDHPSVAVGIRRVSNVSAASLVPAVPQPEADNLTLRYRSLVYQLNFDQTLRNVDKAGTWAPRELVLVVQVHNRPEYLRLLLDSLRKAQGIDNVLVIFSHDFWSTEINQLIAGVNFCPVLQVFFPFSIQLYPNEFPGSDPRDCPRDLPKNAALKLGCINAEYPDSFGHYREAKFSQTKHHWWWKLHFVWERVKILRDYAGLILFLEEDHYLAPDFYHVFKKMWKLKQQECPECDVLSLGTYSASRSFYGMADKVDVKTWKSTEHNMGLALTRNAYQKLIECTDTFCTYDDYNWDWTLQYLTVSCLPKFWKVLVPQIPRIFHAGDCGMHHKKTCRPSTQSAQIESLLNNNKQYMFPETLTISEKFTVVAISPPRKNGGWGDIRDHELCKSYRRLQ
UniProt Q13131: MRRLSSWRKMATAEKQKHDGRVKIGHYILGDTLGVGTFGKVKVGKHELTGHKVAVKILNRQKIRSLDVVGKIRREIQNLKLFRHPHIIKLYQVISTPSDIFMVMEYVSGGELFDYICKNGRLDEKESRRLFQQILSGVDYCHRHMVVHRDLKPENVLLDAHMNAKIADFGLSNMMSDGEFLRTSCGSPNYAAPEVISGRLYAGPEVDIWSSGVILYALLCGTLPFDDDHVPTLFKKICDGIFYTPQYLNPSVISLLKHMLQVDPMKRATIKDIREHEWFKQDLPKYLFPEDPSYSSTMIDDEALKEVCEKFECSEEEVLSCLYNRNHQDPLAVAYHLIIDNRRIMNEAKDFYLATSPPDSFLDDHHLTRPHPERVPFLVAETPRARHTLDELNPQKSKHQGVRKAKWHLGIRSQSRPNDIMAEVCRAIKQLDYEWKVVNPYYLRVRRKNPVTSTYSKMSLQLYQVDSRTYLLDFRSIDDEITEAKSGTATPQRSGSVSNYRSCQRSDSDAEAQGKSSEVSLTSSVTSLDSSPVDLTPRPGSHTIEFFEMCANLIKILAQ
UniProt Q13630: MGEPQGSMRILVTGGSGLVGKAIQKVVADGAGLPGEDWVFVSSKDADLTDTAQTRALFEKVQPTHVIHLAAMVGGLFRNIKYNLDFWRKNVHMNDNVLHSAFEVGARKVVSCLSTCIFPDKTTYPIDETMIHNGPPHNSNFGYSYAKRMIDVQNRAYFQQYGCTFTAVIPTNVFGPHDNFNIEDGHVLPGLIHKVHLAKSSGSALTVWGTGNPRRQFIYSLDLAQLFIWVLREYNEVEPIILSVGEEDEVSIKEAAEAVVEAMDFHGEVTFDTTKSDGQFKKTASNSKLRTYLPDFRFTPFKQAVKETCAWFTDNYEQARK
UniProt Q13442: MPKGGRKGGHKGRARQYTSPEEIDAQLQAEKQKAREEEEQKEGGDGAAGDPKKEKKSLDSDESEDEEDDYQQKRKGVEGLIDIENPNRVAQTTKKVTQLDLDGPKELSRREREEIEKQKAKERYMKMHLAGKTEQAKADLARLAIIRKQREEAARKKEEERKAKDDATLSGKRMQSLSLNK
UniProt Q12846: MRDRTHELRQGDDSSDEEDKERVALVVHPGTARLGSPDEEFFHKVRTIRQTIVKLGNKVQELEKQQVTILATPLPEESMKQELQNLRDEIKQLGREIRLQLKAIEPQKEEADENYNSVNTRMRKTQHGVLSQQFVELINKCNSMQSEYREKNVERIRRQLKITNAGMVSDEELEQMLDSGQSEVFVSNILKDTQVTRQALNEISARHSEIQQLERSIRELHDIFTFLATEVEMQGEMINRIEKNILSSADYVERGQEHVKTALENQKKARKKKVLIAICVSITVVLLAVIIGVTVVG
UniProt Q13546: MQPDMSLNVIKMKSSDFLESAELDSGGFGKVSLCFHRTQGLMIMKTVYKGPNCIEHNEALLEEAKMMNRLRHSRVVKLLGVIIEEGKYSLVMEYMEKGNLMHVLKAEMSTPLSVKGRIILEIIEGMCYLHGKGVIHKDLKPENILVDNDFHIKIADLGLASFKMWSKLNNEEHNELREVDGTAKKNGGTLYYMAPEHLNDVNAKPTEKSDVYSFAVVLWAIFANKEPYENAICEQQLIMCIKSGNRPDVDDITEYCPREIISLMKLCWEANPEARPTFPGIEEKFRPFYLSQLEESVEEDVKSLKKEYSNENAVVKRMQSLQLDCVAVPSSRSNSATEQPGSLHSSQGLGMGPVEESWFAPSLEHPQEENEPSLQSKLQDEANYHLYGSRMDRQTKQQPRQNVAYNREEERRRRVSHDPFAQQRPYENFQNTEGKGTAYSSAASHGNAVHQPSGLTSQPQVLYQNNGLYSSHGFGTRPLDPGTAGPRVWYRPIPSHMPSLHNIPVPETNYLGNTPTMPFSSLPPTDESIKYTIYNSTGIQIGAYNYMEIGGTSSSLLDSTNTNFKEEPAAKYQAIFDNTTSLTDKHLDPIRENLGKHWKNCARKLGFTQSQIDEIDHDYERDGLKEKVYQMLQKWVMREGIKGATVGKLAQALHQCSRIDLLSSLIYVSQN
UniProt Q03111: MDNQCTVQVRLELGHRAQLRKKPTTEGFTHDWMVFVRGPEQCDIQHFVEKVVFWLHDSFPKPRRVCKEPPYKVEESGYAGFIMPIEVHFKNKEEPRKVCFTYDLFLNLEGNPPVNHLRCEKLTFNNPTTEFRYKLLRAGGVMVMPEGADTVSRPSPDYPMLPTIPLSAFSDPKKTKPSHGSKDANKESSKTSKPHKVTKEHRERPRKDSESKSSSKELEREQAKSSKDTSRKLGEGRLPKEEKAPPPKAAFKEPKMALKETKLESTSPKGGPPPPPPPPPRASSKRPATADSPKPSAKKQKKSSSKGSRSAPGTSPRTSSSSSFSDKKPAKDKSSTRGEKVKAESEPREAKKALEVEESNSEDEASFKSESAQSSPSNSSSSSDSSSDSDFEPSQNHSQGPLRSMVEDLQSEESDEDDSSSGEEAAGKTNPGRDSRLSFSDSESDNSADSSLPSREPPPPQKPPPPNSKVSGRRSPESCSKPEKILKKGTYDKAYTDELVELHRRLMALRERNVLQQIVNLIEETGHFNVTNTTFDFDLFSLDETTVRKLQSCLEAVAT
UniProt Q12996: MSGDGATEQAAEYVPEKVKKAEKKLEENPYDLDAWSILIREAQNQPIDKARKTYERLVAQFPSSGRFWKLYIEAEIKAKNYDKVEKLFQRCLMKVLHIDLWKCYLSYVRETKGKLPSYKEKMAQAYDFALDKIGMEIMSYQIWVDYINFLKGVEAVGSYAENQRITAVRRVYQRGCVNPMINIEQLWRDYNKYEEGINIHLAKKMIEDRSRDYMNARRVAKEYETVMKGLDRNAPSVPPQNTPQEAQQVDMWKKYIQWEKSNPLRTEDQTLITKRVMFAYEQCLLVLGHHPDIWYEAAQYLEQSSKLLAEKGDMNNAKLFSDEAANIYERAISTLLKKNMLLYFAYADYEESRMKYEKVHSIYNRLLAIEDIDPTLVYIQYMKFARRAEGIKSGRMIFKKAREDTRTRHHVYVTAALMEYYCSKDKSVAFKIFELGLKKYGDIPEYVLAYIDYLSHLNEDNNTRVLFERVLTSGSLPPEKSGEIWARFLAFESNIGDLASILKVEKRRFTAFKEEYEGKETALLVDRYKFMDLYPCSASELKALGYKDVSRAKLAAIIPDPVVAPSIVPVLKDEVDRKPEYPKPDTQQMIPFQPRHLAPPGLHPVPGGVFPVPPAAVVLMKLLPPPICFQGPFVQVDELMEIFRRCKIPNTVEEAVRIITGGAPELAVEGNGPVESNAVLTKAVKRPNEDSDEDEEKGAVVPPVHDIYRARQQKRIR
UniProt Q12834, whole entry: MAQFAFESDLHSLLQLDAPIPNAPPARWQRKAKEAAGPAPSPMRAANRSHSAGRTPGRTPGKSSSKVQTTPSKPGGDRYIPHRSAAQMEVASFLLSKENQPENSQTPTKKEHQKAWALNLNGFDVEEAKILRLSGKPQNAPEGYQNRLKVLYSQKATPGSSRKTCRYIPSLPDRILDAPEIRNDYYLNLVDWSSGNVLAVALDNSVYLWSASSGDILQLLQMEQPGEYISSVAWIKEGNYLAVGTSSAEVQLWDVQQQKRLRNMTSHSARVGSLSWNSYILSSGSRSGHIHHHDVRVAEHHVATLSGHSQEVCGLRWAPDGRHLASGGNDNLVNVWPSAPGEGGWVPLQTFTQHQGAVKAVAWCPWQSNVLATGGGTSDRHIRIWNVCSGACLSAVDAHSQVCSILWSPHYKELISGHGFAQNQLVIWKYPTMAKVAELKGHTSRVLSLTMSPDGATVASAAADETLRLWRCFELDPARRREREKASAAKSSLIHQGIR
UniProt Q12981: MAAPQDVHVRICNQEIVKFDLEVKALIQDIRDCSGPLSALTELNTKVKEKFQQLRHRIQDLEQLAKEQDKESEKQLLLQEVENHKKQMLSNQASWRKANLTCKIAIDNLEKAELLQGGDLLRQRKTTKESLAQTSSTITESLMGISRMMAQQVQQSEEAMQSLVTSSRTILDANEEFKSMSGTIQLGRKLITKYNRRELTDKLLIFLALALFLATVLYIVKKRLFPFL
UniProt Q13127: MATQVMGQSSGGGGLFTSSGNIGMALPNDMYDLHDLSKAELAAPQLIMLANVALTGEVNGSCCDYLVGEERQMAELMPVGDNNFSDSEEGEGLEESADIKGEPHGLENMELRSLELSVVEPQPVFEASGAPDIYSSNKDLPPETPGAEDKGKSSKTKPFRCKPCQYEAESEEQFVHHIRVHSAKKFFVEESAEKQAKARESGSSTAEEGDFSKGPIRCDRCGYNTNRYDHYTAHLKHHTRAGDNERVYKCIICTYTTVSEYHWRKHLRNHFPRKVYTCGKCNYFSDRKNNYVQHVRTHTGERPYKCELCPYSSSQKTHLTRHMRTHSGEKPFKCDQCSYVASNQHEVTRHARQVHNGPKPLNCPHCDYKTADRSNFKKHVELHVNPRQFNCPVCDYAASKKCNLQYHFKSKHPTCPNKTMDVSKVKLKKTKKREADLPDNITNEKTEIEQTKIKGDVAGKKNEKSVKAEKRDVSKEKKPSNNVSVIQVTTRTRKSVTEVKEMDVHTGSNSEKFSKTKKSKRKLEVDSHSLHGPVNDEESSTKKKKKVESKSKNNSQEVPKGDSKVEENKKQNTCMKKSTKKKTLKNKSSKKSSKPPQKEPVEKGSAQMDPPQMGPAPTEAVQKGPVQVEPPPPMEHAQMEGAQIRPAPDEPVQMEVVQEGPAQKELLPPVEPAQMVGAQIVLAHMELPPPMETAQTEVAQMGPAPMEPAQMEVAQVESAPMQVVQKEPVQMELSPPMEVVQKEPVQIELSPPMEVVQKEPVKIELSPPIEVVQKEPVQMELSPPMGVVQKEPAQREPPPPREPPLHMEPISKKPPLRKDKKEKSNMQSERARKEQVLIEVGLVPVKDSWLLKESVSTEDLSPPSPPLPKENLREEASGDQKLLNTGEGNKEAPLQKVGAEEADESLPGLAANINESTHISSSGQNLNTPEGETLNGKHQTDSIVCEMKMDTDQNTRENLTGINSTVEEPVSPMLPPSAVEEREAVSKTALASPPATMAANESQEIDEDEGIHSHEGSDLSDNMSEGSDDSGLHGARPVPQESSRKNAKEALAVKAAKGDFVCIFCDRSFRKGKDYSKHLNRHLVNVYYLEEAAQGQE
UniProt Q08257: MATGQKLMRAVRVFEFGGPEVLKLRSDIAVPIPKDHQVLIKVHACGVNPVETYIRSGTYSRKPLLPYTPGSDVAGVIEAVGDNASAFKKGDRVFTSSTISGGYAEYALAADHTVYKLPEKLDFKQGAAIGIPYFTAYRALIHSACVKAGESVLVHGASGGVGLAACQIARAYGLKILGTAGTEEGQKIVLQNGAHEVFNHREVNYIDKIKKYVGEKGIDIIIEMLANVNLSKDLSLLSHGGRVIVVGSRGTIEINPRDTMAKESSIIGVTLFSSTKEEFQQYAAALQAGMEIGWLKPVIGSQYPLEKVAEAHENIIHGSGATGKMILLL
UniProt Q04864: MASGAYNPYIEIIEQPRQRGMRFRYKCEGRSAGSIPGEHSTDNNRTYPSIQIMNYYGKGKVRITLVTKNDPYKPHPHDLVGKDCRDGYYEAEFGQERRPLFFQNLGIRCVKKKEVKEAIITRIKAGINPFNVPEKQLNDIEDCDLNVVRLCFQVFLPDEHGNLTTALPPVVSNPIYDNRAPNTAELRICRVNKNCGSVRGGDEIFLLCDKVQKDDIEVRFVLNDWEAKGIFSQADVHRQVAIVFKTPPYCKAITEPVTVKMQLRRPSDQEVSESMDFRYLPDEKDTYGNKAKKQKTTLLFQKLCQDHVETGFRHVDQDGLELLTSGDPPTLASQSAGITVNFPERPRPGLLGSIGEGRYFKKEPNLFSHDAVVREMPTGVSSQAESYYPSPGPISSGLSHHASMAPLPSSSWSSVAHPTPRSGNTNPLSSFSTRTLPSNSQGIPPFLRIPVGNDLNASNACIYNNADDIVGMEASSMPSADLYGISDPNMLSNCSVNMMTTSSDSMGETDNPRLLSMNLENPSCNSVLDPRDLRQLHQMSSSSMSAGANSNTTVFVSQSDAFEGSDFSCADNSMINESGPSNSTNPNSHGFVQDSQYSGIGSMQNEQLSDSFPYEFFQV

Compound: Nc1nc2c(ncn2[C@@H]2O[C@H](COP(=O)(O)OP(=O)(O)OP(=O)(O)O)[C@@H](O)[C@H]2O)c(=O)[nH]1 [guanosine triphosphate]
Test: NP40-soluble protein abundance relative to vehicle (solubility fold change) (ratio); higher = more soluble protein in presence of GTP
How it was run: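 Crude Jurkat lysate, prepared by Dounce homogenisation, was exposed to eight concentrations from 0.1 to 10 mM for 10 min at room temperature and then 3 min at 37 °C. Solubilisation used 0.8% NP40 with benzonase for 60 min at 4 °C, followed by ultracentrifugation and TMT labelling of the supernatant for LC-MS/MS. After vsn normalisation of intensities, each value is the fold change against the detergent-processed vehicle within each replicate, across three independent experiments.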

Target	NP40-soluble protein abundance (concentration: 0.1mM)	NP40-soluble protein abundance (concentration: 0.5mM)	NP40-soluble protein abundance (concentration: 1mM)	NP40-soluble protein abundance (concentration: 2mM)	NP40-soluble protein abundance (concentration: 4mM)	NP40-soluble protein abundance (concentration: 6mM)	NP40-soluble protein abundance (concentration: 8mM)	NP40-soluble protein abundance (concentration: 10mM)
ITPK1 (UniProt Q13572)	0.997 ± 0.085	0.965 ± 0.064	0.904 ± 0.095	0.981 ± 0.077	0.981 ± 0.15	0.943 ± 0.18	0.924 ± 0.13	0.953 ± 0.09
MGAT2 (UniProt Q10469)	1.05 ± 0.063	1.02 ± 0.09	1.02 ± 0.032	1.02 ± 0.019	1.05 ± 0.016	0.987 ± 0.11	1.009 ± 0.01	1.01 ± 0.022
UniProt Q13951 and related entries	1.01 ± 0.045	1.03 ± 0.058	1.04 ± 0.052	0.982 ± 0.083	0.967 ± 0.06	1.02 ± 0.062	1.06 ± 0.027	1.01 ± 0.039
BYSL (UniProt Q13895)	0.924 ± 0.03	0.952 ± 0.051	0.949 ± 0.033	0.987 ± 0.084	0.987 ± 0.1	0.916 ± 0.12	0.856 ± 0.048	0.885 ± 0.07
UniProt Q13131 and related entries	1.03 ± 0.029	1.06 ± 0.072	0.9331 ± 0.0071	0.989 ± 0.077	0.962 ± 0.065	0.941 ± 0.073	0.907 ± 0.036	0.906 ± 0.062
TSTA3 (UniProt Q13630)	1.05 ± 0.039	1.04 ± 0.013	1.01 ± 0.078	0.967 ± 0.049	0.942 ± 0.051	0.993 ± 0.12	0.994 ± 0.11	0.934 ± 0.048
NOTCH2 (UniProt Q04721)	0.991 ± 0.023	1.03 ± 0.042	1.086 ± 0.0064	1.12 ± 0.069	0.967 ± 0.22	1.08 ± 0.23	1.08 ± 0.028	1.06 ± 0.08
PSMD2 (UniProt Q13200)	1.03 ± 0.077	1.1 ± 0.11	1.01 ± 0.13	1.08 ± 0.19	1.06 ± 0.17	1.08 ± 0.2	1.04 ± 0.16	1 ± 0.15
PDAP1 (UniProt Q13442)	1.02 ± 0.05	1 ± 0.045	1.11 ± 0.085	1.1 ± 0.078	1.2 ± 0.16	1.29 ± 0.09	1.38 ± 0.16	1.59 ± 0.21
STX4 (UniProt Q12846)	1 ± 0.019	0.984 ± 0.02	0.987 ± 0.051	0.989 ± 0.052	0.941 ± 0.057	0.946 ± 0.036	0.919 ± 0.059	0.923 ± 0.039
RIPK1 (UniProt Q13546)	1.05 ± 0.06	1.01 ± 0.059	0.96 ± 0.049	0.93 ± 0.079	0.948 ± 0.033	0.924 ± 0.067	0.914 ± 0.075	0.884 ± 0.067
PDCL (UniProt Q13371)	1.13 ± 0.12	1.11 ± 0.21	1.15 ± 0.18	1.23 ± 0.23	1.26 ± 0.21	1.21 ± 0.24	1.22 ± 0.23	1.2 ± 0.23
UniProt Q13155	1.12 ± 0.055	1.08 ± 0.12	1.21 ± 0.2	1.21 ± 0.21	1.3 ± 0.24	1.27 ± 0.29	1.34 ± 0.3	1.19 ± 0.26
UniProt Q05086 and related entries	1 ± 0.031	1.01 ± 0.033	0.947 ± 0.038	0.942 ± 0.043	0.929 ± 0.036	0.941 ± 0.049	0.9237 ± 0.0076	0.886 ± 0.036
MLLT1 (UniProt Q03111)	0.99 ± 0.053	0.972 ± 0.071	0.988 ± 0.11	0.954 ± 0.11	0.961 ± 0.091	0.976 ± 0.091	0.994 ± 0.026	1.03 ± 0.091
UniProt Q13428 and related entries	0.975 ± 0.096	1.01 ± 0.085	1.09 ± 0.12	1.09 ± 0.15	1.11 ± 0.16	1.13 ± 0.14	1.17 ± 0.17	1.23 ± 0.23
CSTF3 (UniProt Q12996)	1.05 ± 0.014	1.046 ± 0.0039	1.03 ± 0.029	1.07 ± 0.053	1.1 ± 0.048	1.09 ± 0.039	1.09 ± 0.048	1.06 ± 0.031
UniProt Q02078-2|Q02078-6|H0YNI2 and related entries	0.977 ± 0.026	1.09 ± 0.058	1.04 ± 0.12	0.967 ± 0.011	1.08 ± 0.25	1.07 ± 0.22	0.959 ± 0.033	1.04 ± 0.069
URB2 (UniProt Q14146)	1.21 ± 0.18	1.08 ± 0.28	1.11 ± 0.23	1.29 ± 0.25	1.39 ± 0.2	1.45 ± 0.24	1.6 ± 0.34	1.63 ± 0.34
CDC20 (UniProt Q12834)	1.01 ± 0.065	1.08 ± 0.13	1.07 ± 0.13	1.03 ± 0.024	1.06 ± 0.11	1.04 ± 0.058	1.08 ± 0.17	1.09 ± 0.18
UniProt Q00653 and related entries	0.995 ± 0.032	0.997 ± 0.021	0.959 ± 0.013	0.955 ± 0.037	0.96 ± 0.048	0.931 ± 0.016	0.966 ± 0.04	0.94 ± 0.045
UniProt Q12981 and related entries	0.963 ± 0.018	0.9399 ± 0.0075	0.987 ± 0.04	0.98 ± 0.043	0.964 ± 0.046	0.944 ± 0.03	0.929 ± 0.011	0.936 ± 0.043
UniProt Q13127 and related entries	0.963 ± 0.041	0.985 ± 0.079	0.975 ± 0.078	0.944 ± 0.082	0.989 ± 0.058	1 ± 0.032	1.11 ± 0.035	1.12 ± 0.087
CRYZ (UniProt Q08257)	1.03 ± 0.05	1.03 ± 0.075	0.937 ± 0.012	0.947 ± 0.089	0.895 ± 0.036	0.908 ± 0.054	0.878 ± 0.0092	0.845 ± 0.023
UniProt Q04864 and related entries	0.995 ± 0.038	1.01 ± 0.048	0.931 ± 0.038	0.96 ± 0.03	0.955 ± 0.04	0.948 ± 0.022	0.924 ± 0.048	0.893 ± 0.055
PIN1 (UniProt Q13526)	0.888 ± 0.024	0.869 ± 0.025	0.939 ± 0.046	0.91 ± 0.059	0.88 ± 0.079	0.886 ± 0.07	0.887 ± 0.05	0.912 ± 0.054
FKBP5 (UniProt Q13451)	0.977 ± 0.017	0.994 ± 0.022	0.982 ± 0.05	0.927 ± 0.052	0.919 ± 0.052	0.925 ± 0.066	0.952 ± 0.034	0.891 ± 0.046

Only NP40-soluble protein abundance (concentration: 4mM) and NP40-soluble protein abundance (concentration: 2mM) (2 entries from above):
Target	NP40-soluble protein abundance (concentration: 4mM)	NP40-soluble protein abundance (concentration: 2mM)
MLLT1 (UniProt Q03111)	0.961 ± 0.091	0.954 ± 0.11
UniProt Q13428 and related entries	1.11 ± 0.16	1.09 ± 0.15
